Where two headings read alike, the source gives them in different places. No constants are given. Whether binding was seen depends on the method and setting. In cells and extracts the contact can be indirect. Some results given as binding are weak or reduced against the parent protein; the word gives no strength. For some assays here: Sequences can lack the tags named with a protein.
What was measured:
[1] = molecular target: GST-E7 fusion protein phosphorylated with CKI and GSK3 kinases (human papillomavirus type 16) (UniProt P03129); assay: pull-down; GST fusion proteins bound to glutathione resin incubated 3 h at 4 °C with extracts of transfected HEK293 cells (lysis buffer 50 mM HEPES pH 7.4, 150 mM NaCl, 1 mM MgCl2, 1% Triton X-100); bound proteins by Western blot; for Fig. 6A GST-E7 was first phosphorylated with CKI and GSK3 in presence of regular ATP; only the target purified
[2] = molecular target: GST-tagged HPV16 E7 wild type (human papillomavirus type 16) (UniProt P03129); assay: as above
[3] = molecular target: 16 E7 19–20 phospho-peptide (human papillomavirus type 16); assay: pull-down; biotinylated peptides bound to streptavidin-conjugated beads, incubated with extracts of transfected HEK293 cells; bound proteins by Western blot; only the target purified
[4] = molecular target: 16 E7 19–20 peptide (human papillomavirus type 16); assay: as above
[5] = molecular target: GST-E7 fusion protein phosphorylated with CKI and GSK3 kinases (human papillomavirus type 16) (UniProt P03129); assay: pull-down; GST fusion proteins bound to glutathione resin incubated 3 h at 4 °C with extracts of transfected HEK293 cells (lysis buffer 50 mM HEPES pH 7.4, 150 mM NaCl, 1 mM MgCl2, 1% Triton X-100); bound proteins by Western blot; for Fig. 6A GST-E7 was first phosphorylated with CKI and GSK3 in presence of regular ATP; only the target purified; remark: listed apart in the source
[6] = molecular target: GST-tagged HPV16 E7 wild type (human papillomavirus type 16) (UniProt P03129); assay: as above; remark: listed apart in the source
[7] = molecular target: C-terminal FLAG/HA-tagged HPV16 E7 wild type (human papillomavirus type 16) (UniProt P03129); assay: co-IP; HEK293 cells transfected with pRb-HA and FLAG/HA-tagged HPV16 E7; lysates incubated with anti-FLAG agarose beads 3 h at 4 °C; Western blot
[8] = molecular target: GST-tagged HPV16 E7 wild type (human papillomavirus type 16) (UniProt P03129); assay: pull-down; GST fusion proteins incubated 2 h at 4 °C with in vitro translated, [35S]-methionine-labelled protein; beads washed with lysis buffer; SDS-PAGE and autoradiography; only the target purified

The chains behind the UniProt entries cited, without tags or fusion partners.
UniProt P03129: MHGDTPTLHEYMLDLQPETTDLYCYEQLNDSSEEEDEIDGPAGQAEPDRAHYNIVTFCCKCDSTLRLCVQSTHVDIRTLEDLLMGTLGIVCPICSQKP
UniProt Q12923: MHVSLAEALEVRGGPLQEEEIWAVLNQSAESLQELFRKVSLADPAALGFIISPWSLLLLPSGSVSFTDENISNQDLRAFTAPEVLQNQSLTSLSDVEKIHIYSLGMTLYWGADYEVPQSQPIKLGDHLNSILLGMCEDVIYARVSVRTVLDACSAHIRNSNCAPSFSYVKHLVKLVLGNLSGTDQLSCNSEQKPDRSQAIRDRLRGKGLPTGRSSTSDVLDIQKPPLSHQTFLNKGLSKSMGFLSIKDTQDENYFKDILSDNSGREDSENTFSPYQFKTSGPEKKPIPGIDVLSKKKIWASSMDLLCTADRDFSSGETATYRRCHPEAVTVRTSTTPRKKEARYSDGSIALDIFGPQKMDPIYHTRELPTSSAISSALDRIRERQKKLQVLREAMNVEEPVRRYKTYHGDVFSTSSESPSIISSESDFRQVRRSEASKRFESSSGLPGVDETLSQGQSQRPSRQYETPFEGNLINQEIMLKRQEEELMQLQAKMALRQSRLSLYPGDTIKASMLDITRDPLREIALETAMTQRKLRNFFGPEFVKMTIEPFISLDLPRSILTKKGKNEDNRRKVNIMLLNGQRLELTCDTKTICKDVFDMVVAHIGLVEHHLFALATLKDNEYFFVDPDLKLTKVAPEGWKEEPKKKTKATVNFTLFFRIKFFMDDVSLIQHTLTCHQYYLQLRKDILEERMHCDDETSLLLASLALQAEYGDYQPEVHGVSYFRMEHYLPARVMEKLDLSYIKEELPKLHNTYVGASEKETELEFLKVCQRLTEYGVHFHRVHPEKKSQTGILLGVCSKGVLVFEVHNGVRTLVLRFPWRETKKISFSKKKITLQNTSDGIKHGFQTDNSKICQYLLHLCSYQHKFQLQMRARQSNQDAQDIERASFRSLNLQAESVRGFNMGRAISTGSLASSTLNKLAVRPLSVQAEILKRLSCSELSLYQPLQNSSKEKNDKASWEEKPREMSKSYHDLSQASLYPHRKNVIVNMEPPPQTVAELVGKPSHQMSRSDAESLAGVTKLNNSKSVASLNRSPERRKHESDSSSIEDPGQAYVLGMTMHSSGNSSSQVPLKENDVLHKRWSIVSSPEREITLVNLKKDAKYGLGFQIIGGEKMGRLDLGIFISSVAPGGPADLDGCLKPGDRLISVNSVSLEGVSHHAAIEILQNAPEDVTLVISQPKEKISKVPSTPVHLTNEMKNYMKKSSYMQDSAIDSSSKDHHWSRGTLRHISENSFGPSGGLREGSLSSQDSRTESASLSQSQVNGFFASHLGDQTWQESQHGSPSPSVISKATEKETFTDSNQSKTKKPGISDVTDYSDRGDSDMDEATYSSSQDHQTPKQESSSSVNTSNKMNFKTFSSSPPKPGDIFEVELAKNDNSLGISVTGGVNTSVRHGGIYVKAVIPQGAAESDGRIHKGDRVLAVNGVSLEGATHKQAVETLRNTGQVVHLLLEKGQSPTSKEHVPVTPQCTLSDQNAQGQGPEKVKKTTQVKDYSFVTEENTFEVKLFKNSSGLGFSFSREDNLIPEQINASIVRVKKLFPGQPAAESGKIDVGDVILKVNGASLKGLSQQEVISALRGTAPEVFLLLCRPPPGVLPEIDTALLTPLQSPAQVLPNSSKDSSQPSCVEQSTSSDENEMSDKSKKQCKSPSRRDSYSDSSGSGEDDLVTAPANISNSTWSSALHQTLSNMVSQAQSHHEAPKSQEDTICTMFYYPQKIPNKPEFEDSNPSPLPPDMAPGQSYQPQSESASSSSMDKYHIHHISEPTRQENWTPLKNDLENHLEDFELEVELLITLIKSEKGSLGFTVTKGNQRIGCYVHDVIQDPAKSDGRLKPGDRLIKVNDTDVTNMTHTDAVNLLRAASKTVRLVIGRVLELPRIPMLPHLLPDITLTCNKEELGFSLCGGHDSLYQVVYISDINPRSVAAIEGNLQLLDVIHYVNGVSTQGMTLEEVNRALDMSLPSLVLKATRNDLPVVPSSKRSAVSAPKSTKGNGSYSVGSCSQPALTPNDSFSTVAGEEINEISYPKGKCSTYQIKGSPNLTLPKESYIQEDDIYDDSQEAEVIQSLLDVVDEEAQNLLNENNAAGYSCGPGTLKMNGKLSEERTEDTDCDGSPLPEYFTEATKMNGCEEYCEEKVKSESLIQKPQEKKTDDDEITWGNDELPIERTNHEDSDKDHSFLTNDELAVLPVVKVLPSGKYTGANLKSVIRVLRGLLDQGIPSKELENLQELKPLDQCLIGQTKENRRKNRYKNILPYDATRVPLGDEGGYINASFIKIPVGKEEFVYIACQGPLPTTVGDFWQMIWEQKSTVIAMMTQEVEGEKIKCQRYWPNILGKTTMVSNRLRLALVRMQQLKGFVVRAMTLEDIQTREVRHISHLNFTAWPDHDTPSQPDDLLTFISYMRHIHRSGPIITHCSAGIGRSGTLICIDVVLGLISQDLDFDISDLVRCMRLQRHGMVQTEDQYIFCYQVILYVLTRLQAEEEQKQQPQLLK
UniProt Q8TEW0: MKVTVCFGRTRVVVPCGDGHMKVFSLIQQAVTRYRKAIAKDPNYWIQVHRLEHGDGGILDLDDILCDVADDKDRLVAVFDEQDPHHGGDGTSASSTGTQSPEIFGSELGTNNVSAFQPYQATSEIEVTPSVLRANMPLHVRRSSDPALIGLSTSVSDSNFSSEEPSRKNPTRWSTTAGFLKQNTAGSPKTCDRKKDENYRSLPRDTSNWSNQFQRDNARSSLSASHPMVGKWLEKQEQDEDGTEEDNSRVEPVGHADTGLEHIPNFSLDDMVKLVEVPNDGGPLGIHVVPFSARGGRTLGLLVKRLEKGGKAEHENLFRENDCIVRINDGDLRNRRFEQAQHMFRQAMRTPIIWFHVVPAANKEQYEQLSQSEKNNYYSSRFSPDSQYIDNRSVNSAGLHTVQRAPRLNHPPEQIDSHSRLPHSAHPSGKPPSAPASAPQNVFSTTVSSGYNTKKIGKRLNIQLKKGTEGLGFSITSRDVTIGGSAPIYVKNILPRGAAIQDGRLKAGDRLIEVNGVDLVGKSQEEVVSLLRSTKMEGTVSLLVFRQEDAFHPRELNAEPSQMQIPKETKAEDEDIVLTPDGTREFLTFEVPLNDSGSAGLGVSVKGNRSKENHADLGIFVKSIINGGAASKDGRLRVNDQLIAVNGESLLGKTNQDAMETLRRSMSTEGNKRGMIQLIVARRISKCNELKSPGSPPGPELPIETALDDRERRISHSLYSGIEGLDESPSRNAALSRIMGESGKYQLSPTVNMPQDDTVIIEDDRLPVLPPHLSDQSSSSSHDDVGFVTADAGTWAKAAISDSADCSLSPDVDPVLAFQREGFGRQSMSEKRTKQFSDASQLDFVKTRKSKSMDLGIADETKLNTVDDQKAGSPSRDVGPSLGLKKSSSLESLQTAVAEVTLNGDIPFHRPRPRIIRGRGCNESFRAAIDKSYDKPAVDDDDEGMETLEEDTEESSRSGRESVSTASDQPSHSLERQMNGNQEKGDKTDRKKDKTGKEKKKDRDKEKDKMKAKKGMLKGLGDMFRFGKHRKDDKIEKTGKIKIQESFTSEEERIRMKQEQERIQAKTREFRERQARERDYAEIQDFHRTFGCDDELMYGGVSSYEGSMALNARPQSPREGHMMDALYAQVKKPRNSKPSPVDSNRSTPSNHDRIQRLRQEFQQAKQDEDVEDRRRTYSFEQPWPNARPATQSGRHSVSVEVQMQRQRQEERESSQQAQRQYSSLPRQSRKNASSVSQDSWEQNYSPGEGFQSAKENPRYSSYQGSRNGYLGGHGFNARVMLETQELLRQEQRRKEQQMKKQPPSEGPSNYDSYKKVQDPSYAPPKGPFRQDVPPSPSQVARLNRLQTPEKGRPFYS
UniProt P46940: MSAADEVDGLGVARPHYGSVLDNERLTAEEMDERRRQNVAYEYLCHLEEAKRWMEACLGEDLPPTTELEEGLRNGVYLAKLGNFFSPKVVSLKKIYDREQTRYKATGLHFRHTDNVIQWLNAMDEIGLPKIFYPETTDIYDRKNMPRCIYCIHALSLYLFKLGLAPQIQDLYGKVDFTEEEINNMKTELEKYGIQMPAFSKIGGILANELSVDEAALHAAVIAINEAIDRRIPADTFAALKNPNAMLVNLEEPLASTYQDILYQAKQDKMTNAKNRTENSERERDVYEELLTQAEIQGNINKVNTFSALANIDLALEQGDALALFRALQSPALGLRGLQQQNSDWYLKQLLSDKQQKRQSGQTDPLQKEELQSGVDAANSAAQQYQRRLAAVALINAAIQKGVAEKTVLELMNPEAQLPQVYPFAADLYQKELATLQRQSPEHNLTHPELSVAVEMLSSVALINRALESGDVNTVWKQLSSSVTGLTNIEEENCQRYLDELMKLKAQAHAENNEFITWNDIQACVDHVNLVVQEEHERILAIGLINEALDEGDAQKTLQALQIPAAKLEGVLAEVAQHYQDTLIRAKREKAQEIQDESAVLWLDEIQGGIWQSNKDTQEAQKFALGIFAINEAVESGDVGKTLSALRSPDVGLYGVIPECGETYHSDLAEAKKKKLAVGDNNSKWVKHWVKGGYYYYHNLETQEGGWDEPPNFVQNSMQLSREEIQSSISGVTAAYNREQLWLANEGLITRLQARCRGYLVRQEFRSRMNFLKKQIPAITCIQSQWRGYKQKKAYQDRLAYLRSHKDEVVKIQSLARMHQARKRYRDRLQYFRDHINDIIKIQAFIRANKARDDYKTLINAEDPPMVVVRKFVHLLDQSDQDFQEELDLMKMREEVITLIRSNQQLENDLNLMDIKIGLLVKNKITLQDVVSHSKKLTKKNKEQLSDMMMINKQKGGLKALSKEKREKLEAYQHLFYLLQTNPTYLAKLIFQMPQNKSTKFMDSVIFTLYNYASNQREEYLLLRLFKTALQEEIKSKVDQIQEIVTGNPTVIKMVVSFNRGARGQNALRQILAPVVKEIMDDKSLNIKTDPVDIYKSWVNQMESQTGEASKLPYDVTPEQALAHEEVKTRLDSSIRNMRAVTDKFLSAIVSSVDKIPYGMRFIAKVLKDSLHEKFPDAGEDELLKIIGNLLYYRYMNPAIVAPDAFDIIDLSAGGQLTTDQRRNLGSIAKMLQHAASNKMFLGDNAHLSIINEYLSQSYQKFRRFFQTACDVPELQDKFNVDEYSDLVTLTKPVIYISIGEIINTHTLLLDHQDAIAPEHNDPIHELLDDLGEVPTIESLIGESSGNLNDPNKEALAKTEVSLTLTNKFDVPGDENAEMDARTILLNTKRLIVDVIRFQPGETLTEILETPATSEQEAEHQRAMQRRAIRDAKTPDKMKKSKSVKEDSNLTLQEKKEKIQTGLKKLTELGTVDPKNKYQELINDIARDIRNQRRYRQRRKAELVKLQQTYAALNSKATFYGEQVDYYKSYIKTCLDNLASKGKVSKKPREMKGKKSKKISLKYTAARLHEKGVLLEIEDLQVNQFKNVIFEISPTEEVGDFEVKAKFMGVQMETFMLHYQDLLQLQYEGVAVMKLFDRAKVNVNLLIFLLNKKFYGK
UniProt P84092: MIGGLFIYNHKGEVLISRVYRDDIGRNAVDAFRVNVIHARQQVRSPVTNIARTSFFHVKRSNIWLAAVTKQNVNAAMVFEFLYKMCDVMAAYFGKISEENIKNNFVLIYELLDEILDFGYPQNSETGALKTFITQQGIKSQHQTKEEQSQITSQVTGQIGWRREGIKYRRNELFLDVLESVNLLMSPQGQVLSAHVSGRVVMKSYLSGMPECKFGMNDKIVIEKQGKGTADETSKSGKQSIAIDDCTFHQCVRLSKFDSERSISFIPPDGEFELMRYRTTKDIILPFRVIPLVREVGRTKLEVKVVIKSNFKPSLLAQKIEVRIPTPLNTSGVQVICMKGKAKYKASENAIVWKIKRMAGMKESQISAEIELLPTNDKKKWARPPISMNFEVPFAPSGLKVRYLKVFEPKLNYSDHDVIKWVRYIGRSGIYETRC

**Q.** Which binding [1] does the source give for PTPN13-HA (from UniProt Q12923 1-2485) here?
**A.** The binding was “binds”.

**Q.** With PARD3-Myc (from UniProt Q8TEW0 1-1356) as the molecule, how does the binding [1] read?
**A.** Its binding is “binds”.

**Q.** For IQGAP1-Myc (from UniProt P46940 1-1657), which binding [1] is on record?
**A.** The binding was “binds”.

**Q.** What about the binding [2] of the same molecule?
**A.** The binding was “binds”.

**Q.** APμ2-HA (from UniProt P84092 1-435) was tested. Which binding [3] did it give?
**A.** Its binding is “binds”.

**Q.** And the binding [1]?
**A.** The binding was “binds”.

B1: HA-tagged pRb (protein, UniProt P06400 1-928)
chain: MPPKTPRKTAATAAAAAAEPPAPPPPPPPEEDPEQDSGPEDLPLVRLEFEETEEPDFTALCQKLKIPDHVRERAWLTWEKVSSVDGVLGGYIQKKKELWGICIFIAAVDLDEMSFTFTELQKNIEISVHKFFNLLKEIDTSTKVDNAMSRLLKKYDVLFALFSKLERTCELIYLTQPSSSISTEINSALVLKVSWITFLLAKGEVLQMEDDLVISFQLMLCVLDYFIKLSPPMLLKEPYKTAVIPINGSPRTPRRGQNRSARIAKQLENDTRIIEVLCKEHECNIDEVKNVYFKNFIPFMNSLGLVTSNGLPEVENLSKRYEEIYLKNKDLDARLFLDHDKTLQTDSIDSFETQRTPRKSNLDEEVNVIPPHTPVRTVMNTIQQLMMILNSASDQPSENLISYFNNCTVNPKESILKRVKDIGYIFKEKFAKAVGQGCVEIGSQRYKLGVRLYYRVMESMLKSEEERLSIQNFSKLLNDNIFHMSLLACALEVVMATYSRSTSQNLDSGTDLSFPWILNVLNLKAFDFYKVIESFIKAEGNLTREMIKHLERCEHRIMESLAWLSDSPLFDLIKQSKDREGPTDHLESACPLNLPLQNNHTAADMYLSPVRSPKKKGSTTRVNSTANAETQATSAFQTQKPLKSTSLSLFYKKVYRLAYLRLNTLCERLLSEHPELEHIIWTLFQHTLQNEYELMRDRHLDQIMMCSMYGICKVKNIDLKFKIIVTAYKDLPHAVQETFKRVLIKEEEYDSIIVFYNSVFMQRLKTNILQYASTRPPTLSPIPHIPRSPYKFPSSPLRIPGGNIYISPLKSPYKISEGLPTPTKMTPRSRILVSIGESFGTSEKFQKINQMVCNSDRVLKRSAEGSNPPKPLKKLRFDIEGSDEADGSKHLPGESKFQQKLAEMTSTRTRMQKQKMNDSMDTSNKEEK
**Q.** Which results are given for B1?
**A.** binding [4]: binds; binding [3]: binds; binding [5]: binds; binding [6]: binds; binding [7]: binds

B2: Radio-labelled, in vitro translated pRb (protein, UniProt P06400 1-928)
chain: MPPKTPRKTAATAAAAAAEPPAPPPPPPPEEDPEQDSGPEDLPLVRLEFEETEEPDFTALCQKLKIPDHVRERAWLTWEKVSSVDGVLGGYIQKKKELWGICIFIAAVDLDEMSFTFTELQKNIEISVHKFFNLLKEIDTSTKVDNAMSRLLKKYDVLFALFSKLERTCELIYLTQPSSSISTEINSALVLKVSWITFLLAKGEVLQMEDDLVISFQLMLCVLDYFIKLSPPMLLKEPYKTAVIPINGSPRTPRRGQNRSARIAKQLENDTRIIEVLCKEHECNIDEVKNVYFKNFIPFMNSLGLVTSNGLPEVENLSKRYEEIYLKNKDLDARLFLDHDKTLQTDSIDSFETQRTPRKSNLDEEVNVIPPHTPVRTVMNTIQQLMMILNSASDQPSENLISYFNNCTVNPKESILKRVKDIGYIFKEKFAKAVGQGCVEIGSQRYKLGVRLYYRVMESMLKSEEERLSIQNFSKLLNDNIFHMSLLACALEVVMATYSRSTSQNLDSGTDLSFPWILNVLNLKAFDFYKVIESFIKAEGNLTREMIKHLERCEHRIMESLAWLSDSPLFDLIKQSKDREGPTDHLESACPLNLPLQNNHTAADMYLSPVRSPKKKGSTTRVNSTANAETQATSAFQTQKPLKSTSLSLFYKKVYRLAYLRLNTLCERLLSEHPELEHIIWTLFQHTLQNEYELMRDRHLDQIMMCSMYGICKVKNIDLKFKIIVTAYKDLPHAVQETFKRVLIKEEEYDSIIVFYNSVFMQRLKTNILQYASTRPPTLSPIPHIPRSPYKFPSSPLRIPGGNIYISPLKSPYKISEGLPTPTKMTPRSRILVSIGESFGTSEKFQKINQMVCNSDRVLKRSAEGSNPPKPLKKLRFDIEGSDEADGSKHLPGESKFQQKLAEMTSTRTRMQKQKMNDSMDTSNKEEK
modifications: radiolabelled with [35S]-methionine
**Q.** How did the binding [8] turn out when B2 was run?
**A.** The binding was “binds”.

B3: PTPN14-V5 (protein, UniProt Q15678 1-1187)
chain: MPFGLKLRRTRRYNVLSKNCFVTRIRLLDSNVIECTLSVESTGQECLEAVAQRLELRETHYFGLWFLSKSQQARWVELEKPLKKHLDKFANEPLLFFGVMFYVPNVSWLQQEATRYQYYLQVKKDVLEGRLRCTLDQVIRLAGLAVQADFGDYNQFDSQDFLREYVLFPMDLALEEAVLEELTQKVAQEHKAHSGILPAEAELMYINEVERLDGFGQEIFPVKDNHGNCVHLGIFFMGIFVRNRIGRQAVIYRWNDMGNITHNKSTILVELINKEETALFHTDDIENAKYISRLFATRHKFYKQNKICTEQSNSPPPIRRQPTWSRSSLPRQQPYILPPVHVQCGEHYSETHTSQDSIFHGNEEALYCNSHNSLDLNYLNGTVTNGSVCSVHSVNSLNCSQSFIQASPVSSNLSIPGSDIMRADYIPSHRHSAIIVPSYRPTPDYETVMRQMKRGILHTDSQSQSLRNLNIINTHAYNQPEDLVYSQPEMRERHPYTVPYGPQGVYSNKLVSPSDQRNPKNNVVPSKPGASAISHTVSTPELANMQLQGSHNYSTAHMLKNYLFRPPPPYPRPRPATSTPDLASHRHKYVSGSSPDLVTRKVQLSVKTFQEDSSPVVHQSLQEVSEPLTATKHHGTVNKRHSLEVMNSMVRGMEAMTLKSLHLPMARRNTLREQGPPEEGSGSHEVPQLPQYHHKKTFSDATMLIHSSESEEEEEEAPESVPQIPMLREKMEYSAQLQAALARIPNKPPPEYPGPRKSVSNGALRQDQASLPPAMARARVLRHGPAKAISMSRTDPPAVNGASLGPSISEPDLTSVKERVKKEPVKERPVSEMFSLEDSIIEREMMIRNLEKQKMAGLEAQKRPLMLAALNGLSVARVSGREENRVDATRVPMDERFRTLKKKLEEGMVFTEYEQIPKKKANGIFSTAALPENAERSRIREVVPYEENRVELIPTKENNTGYINASHIKVVVGGAEWHYIATQGPLPHTCHDFWQMVWEQGVNVIAMVTAEEEGGRTKSHRYWPKLGSKHSSATYGKFKVTTKFRTDSVCYATTGLKVKHLLSGQERTVWHLQYTDWPDHGCPEDVQGFLSYLEEIQSVRRHTNSMLEGTKNRHPPIVVHCSAGVGRTGVLILSELMIYCLEHNEKVEVPMMLRLLREQRMFMIQTIAQYKFVYQVLIQFLQNSRLI
**Q.** For B3, which binding [5] is on record?
**A.** Its binding is “binds”.

**Q.** What about the binding [6] of the same molecule?
**A.** Its binding is “binds”.
